In PMC10462666:
Results are given in words; binding and its absence hold for the method and conditions named. In cells and extracts the contact can be indirect. Binding calls can cover weak binding; strength is not graded here.

Amino acid sequences for entries named in this document (tags omitted). A change or cut given only in a name is not applied to a line headed by its entry.
UniProt Q15154: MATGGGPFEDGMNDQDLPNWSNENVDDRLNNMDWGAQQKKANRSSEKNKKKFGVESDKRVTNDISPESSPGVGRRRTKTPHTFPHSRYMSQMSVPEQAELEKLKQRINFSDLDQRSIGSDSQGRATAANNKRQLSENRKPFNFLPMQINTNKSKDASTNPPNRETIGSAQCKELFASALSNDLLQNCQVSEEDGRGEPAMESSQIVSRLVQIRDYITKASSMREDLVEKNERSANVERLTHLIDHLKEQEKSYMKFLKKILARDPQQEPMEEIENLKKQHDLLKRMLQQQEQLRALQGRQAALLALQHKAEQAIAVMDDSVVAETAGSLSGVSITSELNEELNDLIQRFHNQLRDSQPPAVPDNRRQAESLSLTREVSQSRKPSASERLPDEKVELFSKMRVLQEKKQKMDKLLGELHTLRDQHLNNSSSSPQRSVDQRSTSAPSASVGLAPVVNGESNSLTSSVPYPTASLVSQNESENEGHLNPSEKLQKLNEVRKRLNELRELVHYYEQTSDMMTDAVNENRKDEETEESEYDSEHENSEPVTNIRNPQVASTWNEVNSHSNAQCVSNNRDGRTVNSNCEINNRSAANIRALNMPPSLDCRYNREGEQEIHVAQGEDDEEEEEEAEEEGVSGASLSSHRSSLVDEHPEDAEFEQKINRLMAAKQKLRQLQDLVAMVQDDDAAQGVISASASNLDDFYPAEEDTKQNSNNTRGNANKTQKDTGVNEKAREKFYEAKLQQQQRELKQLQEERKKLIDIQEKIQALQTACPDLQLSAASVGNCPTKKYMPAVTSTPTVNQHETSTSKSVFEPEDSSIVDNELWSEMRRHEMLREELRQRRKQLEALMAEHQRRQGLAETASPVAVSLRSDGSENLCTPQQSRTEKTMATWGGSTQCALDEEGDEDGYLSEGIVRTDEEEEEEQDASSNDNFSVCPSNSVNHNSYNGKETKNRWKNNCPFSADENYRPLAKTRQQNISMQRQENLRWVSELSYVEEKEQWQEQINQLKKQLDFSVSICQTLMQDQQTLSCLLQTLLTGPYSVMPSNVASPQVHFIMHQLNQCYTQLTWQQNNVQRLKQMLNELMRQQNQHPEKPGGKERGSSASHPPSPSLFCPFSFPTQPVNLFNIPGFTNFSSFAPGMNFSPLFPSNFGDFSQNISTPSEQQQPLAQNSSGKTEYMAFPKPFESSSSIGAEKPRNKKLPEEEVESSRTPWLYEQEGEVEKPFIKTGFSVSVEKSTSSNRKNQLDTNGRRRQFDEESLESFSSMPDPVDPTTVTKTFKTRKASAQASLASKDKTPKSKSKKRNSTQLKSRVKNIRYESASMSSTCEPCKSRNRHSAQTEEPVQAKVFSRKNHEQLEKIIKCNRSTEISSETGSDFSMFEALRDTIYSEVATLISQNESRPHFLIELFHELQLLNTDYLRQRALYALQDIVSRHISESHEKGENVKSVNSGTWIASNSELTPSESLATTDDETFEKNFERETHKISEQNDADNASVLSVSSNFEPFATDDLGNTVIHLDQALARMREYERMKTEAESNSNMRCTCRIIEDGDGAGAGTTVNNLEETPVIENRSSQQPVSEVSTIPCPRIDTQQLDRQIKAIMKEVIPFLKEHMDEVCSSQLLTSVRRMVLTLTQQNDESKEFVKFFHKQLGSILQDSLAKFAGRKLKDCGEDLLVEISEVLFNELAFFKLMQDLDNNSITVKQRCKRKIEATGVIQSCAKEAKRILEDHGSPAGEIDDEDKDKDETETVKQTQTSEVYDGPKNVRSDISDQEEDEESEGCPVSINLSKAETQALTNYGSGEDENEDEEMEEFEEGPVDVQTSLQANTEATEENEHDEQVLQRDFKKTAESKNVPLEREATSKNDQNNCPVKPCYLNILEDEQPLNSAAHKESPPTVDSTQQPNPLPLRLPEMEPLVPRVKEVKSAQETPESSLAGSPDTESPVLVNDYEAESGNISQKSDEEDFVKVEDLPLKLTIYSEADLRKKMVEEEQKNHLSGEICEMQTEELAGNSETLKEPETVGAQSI
UniProt O60884: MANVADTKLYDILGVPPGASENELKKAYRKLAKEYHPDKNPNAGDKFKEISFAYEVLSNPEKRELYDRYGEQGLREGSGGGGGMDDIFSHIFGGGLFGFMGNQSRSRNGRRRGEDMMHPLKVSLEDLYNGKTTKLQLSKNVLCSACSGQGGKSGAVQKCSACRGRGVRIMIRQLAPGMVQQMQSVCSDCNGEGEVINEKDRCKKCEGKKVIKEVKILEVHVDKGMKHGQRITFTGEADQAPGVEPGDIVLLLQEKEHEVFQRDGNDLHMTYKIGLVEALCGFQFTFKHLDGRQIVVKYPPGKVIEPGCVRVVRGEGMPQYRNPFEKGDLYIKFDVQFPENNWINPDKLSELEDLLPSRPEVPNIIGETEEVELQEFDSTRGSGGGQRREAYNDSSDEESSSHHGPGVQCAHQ
UniProt P11142: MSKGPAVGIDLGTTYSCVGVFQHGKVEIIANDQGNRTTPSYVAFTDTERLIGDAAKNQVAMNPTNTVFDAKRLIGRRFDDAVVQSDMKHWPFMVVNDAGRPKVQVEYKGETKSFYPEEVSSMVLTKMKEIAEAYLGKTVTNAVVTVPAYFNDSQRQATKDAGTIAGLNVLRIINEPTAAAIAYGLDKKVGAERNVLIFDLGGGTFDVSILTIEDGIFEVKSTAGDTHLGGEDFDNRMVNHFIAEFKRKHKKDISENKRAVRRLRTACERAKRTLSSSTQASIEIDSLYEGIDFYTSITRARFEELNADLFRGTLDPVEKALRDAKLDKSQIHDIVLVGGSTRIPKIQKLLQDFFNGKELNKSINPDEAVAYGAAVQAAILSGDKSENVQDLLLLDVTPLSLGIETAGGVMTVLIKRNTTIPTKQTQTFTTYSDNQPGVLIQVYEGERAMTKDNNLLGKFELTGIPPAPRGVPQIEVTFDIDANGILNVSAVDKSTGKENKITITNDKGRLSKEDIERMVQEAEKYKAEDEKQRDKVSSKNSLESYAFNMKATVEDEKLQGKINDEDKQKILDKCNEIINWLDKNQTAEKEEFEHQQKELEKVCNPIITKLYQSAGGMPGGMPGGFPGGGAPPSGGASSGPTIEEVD

Biological target: HA-tagged PCM1 KFERQ mutant (2AA) (human) (UniProt Q15154)
Test: co-IP; lysate of HeLa cells expressing HA-tagged WT or 2AA PCM1; anti-HA antibody, Protein G agarose; Western blot for HSC70 and DNAJA2

Row | Substance | binding
1 | DnaJ heat shock protein (HSP40) family member A2 (DNAJA2) (from UniProt O60884 1-412) | binds
2 | HSC70 (the 71 kDa heat shock cognate) (from UniProt P11142 1-646) | binds
